Data taken from PubChem BioAssay AID330 (DTP/NCI, 2004).
The list shows only some results of the screen, not a fair sample: it gathers tests that were run many times, whatever their T/C, doses with no T/C, and many T/C values between a quarter and a half above the control. Other doses and runs of a compound stand elsewhere. T/C gives the treated animals as a percentage of the vehicle group. Some entries give survivors of the animals treated and no T/C: the source holds a T/C of zero for them, seemingly a mark for toxic or unscored doses. Some doses without a T/C left all or most animals alive at the check, yet need not have been tolerated: survival well below the control is almost never listed, so the zero probably covers shortened survival too. Counts of survivors are from the toxicity check (mostly the fifth day) where no day follows; animals may have died later. Schedule codes are those of the source, read here as Q, the interval in days (D) or hours (H), X, the number of doses. Some entries hold several experiments; the results are listed from low to high. Counts like (3×) count equal records among those shown. Where survival is the endpoint, this PubChem deposit counts one and a half times the control or more as active, and values a quarter to a half above the control carry no call in these data; other NCI protocols may use other cut-offs. Some T/C values carry the count of animals alive at the toxicity check (mostly the fifth day); without a count, all were alive then.

Tested on: P388 leukemia ip, CD2F1 mice, survival T/C
Assay: NCI In Vivo Anticancer Drug Screen. Data for tumor model P388 Leukemia (intraperitoneal) in CD2F1 (CDF1) mice
Settings: T/C endpoint: median survival time, higher T/C = longer survival
[1] = dose: 240.0 mg/kg/injection, schedule: Q01DX005 (ip), vehicle: saline with Tween-80
[2] = dose: 100.0 mg/kg/injection, schedule: Q01DX009 (ip), vehicle: saline
[3] = dose: 200.0 mg/kg/injection, schedule: Q01DX009 (ip), vehicle: saline

Structure (SMILES): CC1(C)OCC(C2OC(C)(C)OC2C2OC(O)C=CC2=O)O1 (centres undefined)
- survivor count (dose: 12.5 mg/kg/injection, schedule: Q01DX009 (ip), vehicle: distilled water + Tween-80): 3 of 6, 4 of 6, 5 of 6, 6 of 6
- survivor count (dose: 25.0 mg/kg/injection, schedule: Q01DX009 (ip), vehicle: distilled water + Tween-80): 0 of 6 (2×)
- survivor count (dose: 50.0 mg/kg/injection, schedule: Q01DX009 (ip), vehicle: distilled water + Tween-80): 0 of 6 (2×)
- survivor count (dose: 100.0 mg/kg/injection, schedule: Q01DX009 (ip), vehicle: distilled water + Tween-80): 0 of 6 (2×)
- survivor count (dose: 200.0 mg/kg/injection, schedule: Q01DX009 (ip), vehicle: distilled water + Tween-80): 0 of 6 (2×)

Structure (SMILES): c1ccc(C2(c3ccc(C4(c5ccccc5)Oc5ccccc5S4)[nH]3)Oc3ccccc3S2)cc1 (centres undefined)
- survivor count [1]: 0 of 6

Structure (SMILES): COC1C(C(=O)CS(=O)Cc2ccccc2)OC2OC(C)(C)OC21 (centres undefined)
- survivor count (dose: 120.0 mg/kg/injection, schedule: Q01DX005 (ip), vehicle: saline): 5 of 6

Structure (SMILES): CNC(=O)OCC1=CC(=O)C(OC)=C(OC)C1=O
- survivor count (dose: 60.0 mg/kg/injection, schedule: Q01DX005 (ip), vehicle: saline with Tween-80): 2 of 6
- survivor count (dose: 120.0 mg/kg/injection, schedule: Q01DX005 (ip), vehicle: saline with Tween-80): 0 of 6
- survivor count [1]: 0 of 6

Structure (SMILES): COc1ccc2c(c1)OC1CC2NC(N)=N1 (centres undefined)
- survivor count (dose: 50.0 mg/kg/injection, schedule: Q01DX009 (ip), vehicle: saline): 0 of 6
- survivor count [2]: 0 of 6
- survivor count [3]: 0 of 6

Structure (SMILES): CCOC(=N)c1cn(C2OC(CO)C(O)C2O)c2ncnc(N)c12 (centres undefined)
- T/C (dose: 0.09 mg/kg/injection, schedule: Q01DX009 (ip), vehicle: saline): 148 % of control
- T/C (dose: 0.13 mg/kg/injection, schedule: Q01DX009 (ip), vehicle: saline): 145 % of control
- T/C (dose: 1.2 mg/kg/injection, schedule: Q04DX003 (ip), vehicle: saline): 140 % of control [5 of 6 alive]
- T/C (dose: 1.8 mg/kg/injection, schedule: Q04DX003 (ip), vehicle: saline): 140 % of control
- T/C (dose: 2.6 mg/kg/injection, schedule: Q04DX003 (ip), vehicle: saline): 140 % of control
- survivor count (dose: 4.0 mg/kg/injection, schedule: Q01DX009 (ip), vehicle: saline): 6 of 6
- survivor count (dose: 4.0 mg/kg/injection, schedule: Q04DX003 (ip), vehicle: saline): 6 of 6

Structure (SMILES): COc1cccc2c1C(=O)c1c(O)c3c(c(O)c1C2=O)C[C@@H](C(=O)CO)C[C@@H]3OC1CC(N)C(O)C(C)O1 (some centres undefined)
- T/C (dose: 50.0 mg/kg/injection, schedule: Q04DX003 (ip), vehicle: water): 130 % of control

Structure (SMILES): O=C(Nc1ccc(Cl)cc1)Nc1nnc2ncc3c(n12)CCCCCCCCCC3
- survivor count [1]: 6 of 6

Structure (SMILES): Oc1cc(O)c(-c2c(O)cc(O)cc2O)c(O)c1 (tested in a mixture with another compound)
- survivor count (dose: 100.0 mg/kg/injection, schedule: Q01DX005 (ip), vehicle: saline): 2 of 6
- survivor count (dose: 200.0 mg/kg/injection, schedule: Q01DX005 (ip), vehicle: saline): 0 of 6

Structure (SMILES): CCCCCCN=Cc1c(O)c(O)c(C(C)C)c2cc(C)c(-c3c(C)cc4c(C(C)C)c(O)c(O)c(C=NCCCCCC)c4c3O)c(O)c12
- survivor count (dose: 50.0 mg/kg/injection, schedule: Q01DX005 (ip), vehicle: saline with Tween-80): 5 of 5
- survivor count (dose: 100.0 mg/kg/injection, schedule: Q01DX005 (ip), vehicle: saline with Tween-80): 5 of 5
- survivor count (dose: 200.0 mg/kg/injection, schedule: Q01DX005 (ip), vehicle: saline with Tween-80): 5 of 5

Structure (SMILES): CCN(CC)CCN1C(=O)CN=C(c2ccc[nH]2)c2cc(Cl)ccc21
- survivor count (dose: 200.0 mg/kg/injection, schedule: Q01DX009 (ip), vehicle: saline with Tween-80): 6 of 6

Structure (SMILES): C[CH2][Sn]=[O].c1cc[c]([Ge]([c]2ccccc2)[c]2ccccc2)cc1
- T/C [2]: 125 % of control

Structure (SMILES): COc1ccc2c3c([nH]c2c1[N+](=O)[O-])C(C)N(C)CC3 (centres undefined)
- survivor count (dose: 34.0 mg/kg/injection, schedule: Q01DX005 (ip), vehicle: Klucel (hydroxypropylcellulose) (HPC)): 2 of 6
- survivor count (dose: 68.0 mg/kg/injection, schedule: Q01DX005 (ip), vehicle: Klucel (hydroxypropylcellulose) (HPC)): 0 of 6
- survivor count (dose: 136.0 mg/kg/injection, schedule: Q01DX005 (ip), vehicle: Klucel (hydroxypropylcellulose) (HPC)): 0 of 6

Structure (SMILES): CC(CC1CCCCC1)NCCC(c1ccccc1)c1ccccc1 (centres undefined)
- survivor count (dose: 50.0 mg/kg/injection, schedule: Q01DX009 (ip), vehicle: Klucel (hydroxypropylcellulose) (HPC)): 0 of 6 and 3 of 6
- survivor count (dose: 100.0 mg/kg/injection, schedule: Q01DX009 (ip), vehicle: Klucel (hydroxypropylcellulose) (HPC)): 0 of 6
- survivor count (dose: 200.0 mg/kg/injection, schedule: Q01DX009 (ip), vehicle: Klucel (hydroxypropylcellulose) (HPC)): 0 of 6

Structure (SMILES): C[CH2][Sn]([c]1ccccc1)[c]1ccccc1
- T/C [2]: 133 [4 of 6 alive] and 142 % of control
- survivor count [3]: 6 of 6
- survivor count (dose: 200.0 mg/kg/injection, schedule: Q04DX003 (ip), vehicle: saline): 1 of 6

Structure (SMILES): COc1ccc(CN2CCc3cc(OC)c(O)cc3C2)cc1O
- survivor count (dose: 400.0 mg/kg/injection, schedule: Q01DX001 (ip), vehicle: saline with Tween-80): 0 of 6
